Data set [1] can be described thus: Example 1: fresh photographic properties of the thermally processed image recording material containing the compound (660 nm laser exposure, heat development, densitometer). The conditions noted are these: for Fresh photographic property Dmax / Fresh photographic property Contrast / Fresh photographic property Sensitivity: 1.6×10^-1 mol/mol-Ag; for Fresh photographic property Contrast: gradient between densities 0.5 and 1.5 above Dmin; for Fresh photographic property Sensitivity: relative value, exposure giving density Dmin + 1.0; for Fresh photographic property Dmin: added amount 1.6×10^-1 mol/mol-Ag, 118°C for 5 seconds then 122°C for 16 seconds, visible density.

Data set [2] can be described thus: Example 2: fresh photographic properties of the ultrahigh contrast thermally processed image recording material containing the compound (783 nm laser exposure, heat development, densitometer). The conditions noted are these: for Fresh photographic property Dmax / Fresh photographic property Contrast / Fresh photographic property Sensitivity: 8×10^-2 mol/mol-Ag; for Fresh photographic property Contrast: gradient between densities 0.3 and 1.5 above Dmin; for Fresh photographic property Sensitivity: relative value, Experiment No. 1 = 100, exposure giving density Dmin + 1.0; for Fresh photographic property Dmin: added amount 8×10^-2 mol/mol-Ag, heat development 120°C for 20 seconds, visible density.

Setting [3] is: Table 1, Experiment No. 1 of the table = 100.
[4] abbreviates: Table 2, first experiment of the table = 100.

The results in this text go back to EP1072948B1, “Thermally processed image recording material” (FUJIFILM Corporation, priority 1999, dated 2001).

For `CCCCCCOCCN(CC)C(=O)c1cccc(S(=O)(=O)C(Br)(Br)Br)c1` [Comparative Compound 1], in data set [1] (Table 1), the “Fresh photographic property Dmax” value was 2.5, the “Fresh photographic property Contrast” value is given as 2.3 and the “Fresh photographic property Dmin” value was 0.15. Moreover, the “Fresh photographic property Sensitivity” value in data set [1] (setting [3]) was determined as 75. In data set [2] (Table 3), the “Fresh photographic property Dmax” value came to 3.2, the “Fresh photographic property Contrast” value is 9.5, the “Fresh photographic property Sensitivity” value turned out to be 82 and the “Fresh photographic property Dmin” value is recorded as 0.06.
As for `CCNC(=O)c1ccccc1S(=O)(=O)C(Br)(Br)Br` [Comparative Compound 3], in data set [1] (Table 1), the “Fresh photographic property Dmax” value stood at 3.0, the “Fresh photographic property Contrast” value was determined as 2.8 and the “Fresh photographic property Dmin” value was determined as 0.16. Moreover, the “Fresh photographic property Sensitivity” value in data set [1] (setting [3]) was found to be 108. Besides, in data set [2] (Table 3), the “Fresh photographic property Dmax” value worked out at 4.1, the “Fresh photographic property Contrast” value is given as 19.5, the “Fresh photographic property Sensitivity” value was determined as 108 and the “Fresh photographic property Dmin” value amounted to 0.09.
Regarding `CCCCCCCCCCCCCCCCNC(=O)c1cccc(S(=O)(=O)C(Br)(Br)Br)c1` [Comparative Compound (1)], in data set [1] (Table 2), the “Fresh photographic property Dmax” value is on record as 3.0, the “Fresh photographic property Contrast” value worked out at 2.7 and the “Fresh photographic property Dmin” value is on record as 0.15. In addition, in data set [1] (setting [4]), the “Fresh photographic property Sensitivity” value was determined as 99.
Consider `O=C(c1cccc(S(=O)(=O)C(Br)(Br)Br)c1)N1CCCC1` [Comparative Compound (3)], for which, in data set [1] (Table 2), the “Fresh photographic property Dmax” value is on record as 3.1, the “Fresh photographic property Contrast” value was found to be 2.7 and the “Fresh photographic property Dmin” value was determined as 0.15. For the same compound, the “Fresh photographic property Sensitivity” value in data set [1] (setting [4]) is on record as 101. Further, in data set [2] (Table 4), the “Fresh photographic property Dmax” value was determined as 4.1, the “Fresh photographic property Contrast” value came to 19.1, the “Fresh photographic property Sensitivity” value was 99 and the “Fresh photographic property Dmin” value is 0.06.
On to `CCCCCCCCN(CCCCCCCC)S(=O)(=O)c1ccc(S(=O)(=O)C(Br)(Br)Br)cc1` [Comparative Compound (4)], for which, in data set [1] (Table 2), the “Fresh photographic property Dmax” value was 2.9, the “Fresh photographic property Contrast” value is reported as 2.7 and the “Fresh photographic property Dmin” value came out at 0.15. Further, the “Fresh photographic property Sensitivity” value in data set [1] (setting [4]) is given as 98.
As to `CCCCCCCCCCCCN(CCCCCCCCCCCC)C(=O)c1cc(S(C)(=O)=O)ccc1S(=O)(=O)C(Br)(Br)Br` [Comparative Compound (5)], in data set [1] (Table 2), the “Fresh photographic property Dmax” value came out at 3.0, the “Fresh photographic property Contrast” value is listed as 2.7 and the “Fresh photographic property Dmin” value is reported as 0.15. Moreover, in data set [1] (setting [4]), the “Fresh photographic property Sensitivity” value was 99.
For the compound `CCOCCNC(=O)c1cccc(S(=O)(=O)C(Br)(Br)Br)c1` [P'-1], in data set [1] (Table 2), the “Fresh photographic property Dmax” value is 3.0, the “Fresh photographic property Contrast” value was 2.7 and the “Fresh photographic property Dmin” value is 0.15. Also, the “Fresh photographic property Sensitivity” value in data set [1] (setting [4]) came out at 100. Moreover, in data set [2] (Table 4), the “Fresh photographic property Dmax” value is 4.0, the “Fresh photographic property Contrast” value came out at 20.3, the “Fresh photographic property Sensitivity” value amounted to 100 and the “Fresh photographic property Dmin” value was determined as 0.06.
As for `CCCCOCCCNC(=O)c1cccc(S(=O)(=O)C(Br)(Br)Br)c1` [P'-15], in data set [1] (Table 2), the “Fresh photographic property Dmax” value was 3.0, the “Fresh photographic property Contrast” value was found to be 2.7 and the “Fresh photographic property Dmin” value came to 0.15. Moreover, the “Fresh photographic property Sensitivity” value in data set [1] (setting [4]) is listed as 100. For the same compound, in data set [2] (Table 4), the “Fresh photographic property Dmax” value was 4.0, the “Fresh photographic property Contrast” value is reported as 20.3, the “Fresh photographic property Sensitivity” value came out at 100 and the “Fresh photographic property Dmin” value was determined as 0.06.
For the compound `CCC(CC)NC(=O)c1cccc(S(=O)(=O)C(Br)(Br)Br)c1` [P'-18], in data set [1] (Table 2), the “Fresh photographic property Dmax” value amounted to 3.0, the “Fresh photographic property Contrast” value was found to be 2.7 and the “Fresh photographic property Dmin” value was found to be 0.15. Moreover, the “Fresh photographic property Sensitivity” value in data set [1] (setting [4]) worked out at 100.
With `CCCC(C)NC(=O)c1cccc(S(=O)(=O)C(Br)(Br)Br)c1` (stereo not drawn) [P'-20], in data set [1] (Table 2), the “Fresh photographic property Dmax” value worked out at 3.0, the “Fresh photographic property Contrast” value is reported as 2.7 and the “Fresh photographic property Dmin” value is 0.15. Moreover, the “Fresh photographic property Sensitivity” value in data set [1] (setting [4]) is recorded as 101. In data set [2] (Table 4), the “Fresh photographic property Dmax” value is recorded as 4.0, the “Fresh photographic property Contrast” value came to 20.3, the “Fresh photographic property Sensitivity” value is on record as 99 and the “Fresh photographic property Dmin” value is recorded as 0.06.
In the case of `COCCCNC(=O)c1cccc(S(=O)(=O)C(Br)(Br)Br)c1` [P-11], in data set [1] (Table 1), the “Fresh photographic property Dmax” value is reported as 3.0, the “Fresh photographic property Contrast” value is given as 2.7 and the “Fresh photographic property Dmin” value was 0.15. In addition, the “Fresh photographic property Sensitivity” value in data set [1] (setting [3]) came to 101.
For `CCCCNS(=O)(=O)c1cccc(S(=O)(=O)C(Br)(Br)Br)c1` [P-18], in that order: 3.0, 2.7, 0.15 and 100.
